Results reported in PubChem BioAssay AID434955 (Southern Research Specialized Biocontainment Screening …, 2010).
The other results are listed elsewhere or left out.

Assay: beta-lactam sensitization of Mtb H37Rv, H37Rv (AID 434955);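 further: growth measured after seven days incubation then overnight dye step; 0% = bacteria only wells and 100% = bacteria with antibiotic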
Details: M. tuberculosis H37Rv growth with meropenem, percent inhibition; measured here: primary screen without meropenem; at 25 µM

SMILES	inhibition
Nc1ccc([As](=O)(O)c2ccc(N)cc2)cc1	1.59%
Nc1ccc([As](=O)(O)c2ccc([N+](=O)[O-])cc2)cc1	4.13%
O=[As](O)(c1ccc(O)cc1)c1ccccc1O	4.69%
CCOC(=O)Nc1ccc([As](=O)(O)O)c(O)c1	8.63%
